Measured values reported in US20240368668A1, “SUBSTRATES AND BIOMARKERS OF ADAMTS7” (The Broad Institute, Inc., priority 2021, published 2024).

What was measured:
mouse ADAMTS7 [1] = test: TMT10 TAILS N-terminomics, SMC1 experiment (Ad-mADAMTS7 WT vs EQ vs Luc, technical replicates, trypsin digest); type: cell-based; conditions: for SMC1 TAILS.total Intensity: TAILS HC Overlap, total intensity of the peptide
Summary of the method: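 Full-length mouse ADAMTS7 (WT or E373Q mutant, C-terminal 3xFLAG) or luciferase was transduced via adenovirus, 50 MOI, into HCA-SMC (SMC1, SMC2) or HUVEC. SMC1: pooled media, technical triplicates 400 ug; SMC2: process triplicates 300 ug; HUVEC: process triplicates 200 ug, bFGF2 10 ng/ml.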

mouse ADAMTS7 [2] = test: TMT10 TAILS N-terminomics, SMC2 experiment (process replicates, trypsin/AspN digest); type: cell-based; conditions: for SMC2 TAILS.total Intensity: SMC2 experiment, total intensity of the N-terminal (TAILS) peptide
Description: ADAMTS7 Expression, Cell Culture and Preparation of the Secreted Proteins—Full-length mouse Adamts7 1-1857 (Uniprot Q68SA9, WT or E373Q catalytic mutant) with a carboxyl terminal 3xFLAG tag was used to generate custom adenoviruses as previously described. Adeno-CMV-Luciferase (Ad-Luc) from Vector Biolabs was used as a negative control. Human Coronary Artery Smooth Muscle Cells (HCA-SMC) were obtained from Lonza and expanded in Lonza SmGM-2 media in 15 cm tissue culture plates. Twenty-four hours before media collection, near confluent plates were transduced with 50 MOI adenovirus and switched to Lonza Basal SM media with volumes of 20 ml per 15 cm plate. Expression of the Flag tagged ADAMTS7 was confirmed from the media using western blot and detected using the anti-Flag M2-HRP antibody (Sigma, A8592). Collected media was processed by adding protease inhibitors (1 mM EDTA and 1 mM PMSF) and clarified by 500 g×5 min spin at 4 C to pellet cell debris. Cell media supernatants were then passed through a 0.22 um filter and kept chilled. Processed media was then concentrated 50-100× using 3 kDa Centricon Plus-70 filter unit, spun at 3,500 g×60 min at 4 C. Approximately 10% of the processed, concentrated media was set aside for total secretome proteolytic analysis. The remaining 90% of the processed, concentrated media was buffer exchanged into 50 mM HEPES pH 8.0, 150 mM NaCl (2×50 ml) using the 3 kDa Centricon Plus-70 filter unit and concentrated to >2 mg/ml to serve as input for the TAILS experiment. Secretome and TAILS input samples were stored at −80° C.
For the first experiment, referred to as SMC1, 120 ml of media from 6×15 cm dishes was pooled from each condition (Luc, WT, EQ) and processed to produce three separate inputs for the TAILS experiment. Luc, WT and EQ inputs from the SMC1 experiment were each divided into triplicate 400 ug samples to generate technical replicate TAILS data. For the second experiment, referred to as SMC2, media was processed separately in triplicate for each condition (Luc1, Luc2, Luc3, WT1, WT2, WT3, EQ1, EQ2, EQ3) using 60 ml of media from 3×15 cm dishes for each process replicate. Inputs from the SMC2 experiment used process replicates of 300 ug each to generate TAILS data. The third experiment used input from cultured Human umbilical vein endothelial cells (HUVEC) from Lifeline Cell Technology grown in VascuLife Media and transduced in Lifeline Basal EC (+bFGF2 10 ng/ml). The HUVEC experiment used the same strategy as the SMC2 experiment, with 40 ml of media from 2×15 cm dishes for each process replicate and used 200 ug each to generate TAILS data. Inputs for process replicate experiments were restricted to the lowest concentration from the 9 parallel samples for SMC2 or HUVEC.
TMT10 isotopic labeling and negative selection of non-labeled peptides-Sample preparation was performed based on the TAILS protocol from the Overall lab with some modifications. From a single experiment, nine parallel protein samples in 50 mM HEPES pH 8.0, 150 mM NaCl were separately denatured with guanidinium chloride (Sigma, G4505) to reach a final concentration of 2.5M guanidinium chloride and 250 mM HEPES and incubated at 65° C. for 15 min. Reduction was achieved through addition of tris(2-carboxylethyl) phosphine (TCEP) at a final concentration of […] and incubated at 65° C. for 45 min. Alkylation reaction was performed with addition of iodoacetamide (IAA, Sigma, A3221) to a final concentration of 10 mM IAA for 15 min at room temperature in the dark. Following denaturation, reduction and alkylation steps, ten percent of each of the nine parallel protein samples was removed and combined to serve as a pooled reference. Isobaric tags were added to free amine groups using the TMT10plex Isobaric Mass Tagging Kit (ThermoFisher, 90113) with TMT channels randomly assigned to the nine samples and TMT 131 assigned to the pooled reference. […]

[3] = TAILS N-terminal peptide signal, SMC scale-up fractions, mouse ADAMTS7, label = TAILS_id (gene symbol_StartAA)
[4] = total intensity of the N-terminal peptide spectra, SMC rd2 TAILS fractions, AspN/GluC search
[5] = TAILS N-terminal peptide identified in SMC conditioned media (scale-up, fractions), mouse ADAMTS7, value listed per TAILS_id (protein_StartAA)
[6] = SMC rd2 TAILS, AspGluN search, total spectral intensity of the N-terminal peptide (TAILS_id = gene_StartAA cleavage site)

Substance: COL4A2_71 (YNGPPGLQGFPGLQGR; listed as Homo sapiens)
- SMC1 TAILS.total Intensity (mouse ADAMTS7 [1]): 6.55E+07
- TAILS_SMC_Scaleup_fxns_mATS7i (mouse ADAMTS7 [1]; [3]): 6.55E+07
- SMC2 TAILS.total Intensity (mouse ADAMTS7 [2]): 2.73E+08
- ATS7_SMC_rd2_TAILS_frxns_matS7inDB_AspGluN_retry.totalIntensity (mouse ADAMTS7 [2]; [4]): 2.73E+08

Substance: COL1A2_80 (QYDGKGVGLGPGPMGLMGPR; listed as Homo sapiens)
- SMC1 TAILS.total Intensity (mouse ADAMTS7 [1]): 1.24E+09
- TAILS_SMC_Scaleup_fxns_mATS7i (mouse ADAMTS7 [1]; [3]): 1.24E+09
- SMC2 TAILS.total Intensity (mouse ADAMTS7 [2]): 2.08E+07
- ATS7_SMC_rd2_TAILS_frxns_matS7inDB_AspGluN_retry.totalIntensity (mouse ADAMTS7 [2]; [4]): 2.08E+07

Substance: NID2_951 (YAYPGAR; listed as Homo sapiens)
- SMC1 TAILS.total Intensity (mouse ADAMTS7 [1]): 3.51E+08
- TAILS_SMC_Scaleup_fxns_mATS7i (mouse ADAMTS7 [1]; [5]): 3.51E+08
- SMC2 TAILS.total Intensity (mouse ADAMTS7 [2]): 2.03E+09
- ATS7_SMC_rd2_TAILS_frxns_matS7inDB_AspGluN_retry.totalIntensity (mouse ADAMTS7 [2]; [6]): 2.03E+09

Substance: GSN_413 (HIANVER; listed as Homo sapiens)
- SMC1 TAILS.total Intensity (mouse ADAMTS7 [1]): 2.44E+09
- TAILS_SMC_Scaleup_fxns_mATS7i (mouse ADAMTS7 [1]; [3]): 2.44E+09
- SMC2 TAILS.total Intensity (mouse ADAMTS7 [2]): 1.39E+09
- ATS7_SMC_rd2_TAILS_frxns_matS7inDB_AspGluN_retry.totalIntensity (mouse ADAMTS7 [2]; [6]): 1.39E+09

Substance: LOX_58 (LSLGSQYQPQR; listed as Homo sapiens)
- SMC1 TAILS.total Intensity (mouse ADAMTS7 [1]): 2.82E+08
- TAILS_SMC_Scaleup_fxns_mATS7i (mouse ADAMTS7 [1]; [5]): 2.82E+08
- SMC2 TAILS.total Intensity (mouse ADAMTS7 [2]): 6.15E+07
- ATS7_SMC_rd2_TAILS_frxns_matS7inDB_AspGluN_retry.totalIntensity (mouse ADAMTS7 [2]; [6]): 6.15E+07

Substance: VIM_314 (QESTEYR; listed as Homo sapiens)
- SMC1 TAILS.total Intensity (mouse ADAMTS7 [1]): 4.88E+07
- TAILS_SMC_Scaleup_fxns_mATS7i (mouse ADAMTS7 [1]; intensity of the N-terminal (TAILS) peptide in SMC scale-up TAILS experiment, fractions, peptide identified by TAILS_id (gene symbol_StartAA)): 4.88E+07
- SMC2 TAILS.total Intensity (mouse ADAMTS7 [2]): 7.47E+08
- ATS7_SMC_rd2_TAILS_frxns_matS7inDB_AspGluN_retry.totalIntensity (mouse ADAMTS7 [2]; SMC rd2 TAILS, AspGluN digest, total MS intensity of the N-terminal peptide at the given StartAA): 7.47E+08

Substance: COL1A2_630 (VGTAGPSGPSGLPGER; listed as Homo sapiens)
- SMC1 TAILS.total Intensity (mouse ADAMTS7 [1]): 8.62E+06
- TAILS_SMC_Scaleup_fxns_mATS7i (mouse ADAMTS7 [1]; [3]): 8.62E+06
- SMC2 TAILS.total Intensity (mouse ADAMTS7 [2]): 1.32E+08
- ATS7_SMC_rd2_TAILS_frxns_matS7inDB_AspGluN_retry.totalIntensity (mouse ADAMTS7 [2]; [4]): 1.32E+08

Substance: COL1A2_305 (LTGAKGAAGLPGVAGAPGLPGPR; listed as Homo sapiens)
- SMC1 TAILS.total Intensity (mouse ADAMTS7 [1]): 5.24E+07
- TAILS_SMC_Scaleup_fxns_mATS7i (mouse ADAMTS7 [1]; [3]): 5.24E+07
- SMC2 TAILS.total Intensity (mouse ADAMTS7 [2]): 1.16E+09
- ATS7_SMC_rd2_TAILS_frxns_matS7inDB_AspGluN_retry.totalIntensity (mouse ADAMTS7 [2]; [4]): 1.16E+09

Substance: HEG1_224 (FQTKSGTAS; listed as Homo sapiens)
- ATS7_SMC_rd2_TAILS_frxns_matS7inDB_AspGluN_retry.totalIntensity (mouse ADAMTS7 [2]; [6]): 2.12E+08

Substance: CAP1_300 (FSAPKPQTSPSPKR; listed as Homo sapiens)
- ATS7_SMC_rd2_TAILS_frxns_matS7inDB_AspGluN_retry.totalIntensity (mouse ADAMTS7 [2]; [4]): 4.47E+08

Substance: FLNC_2649 (FVGQKNSFTV; listed as Homo sapiens)
- ATS7_SMC_rd2_TAILS_frxns_matS7inDB_AspGluN_retry.totalIntensity (mouse ADAMTS7 [2]; [4]): 7.42E+07

Substance: QSOX1_210 (HKGVAVR; listed as Homo sapiens)
- ATS7_SMC_rd2_TAILS_frxns_matS7inDB_AspGluN_retry.totalIntensity (mouse ADAMTS7 [2]; [6]): 7.78E+07

Substance: DIS3L_75 (FPELKGIIFMQTACQAVQHQR; listed as Homo sapiens)
- ATS7_SMC_rd2_TAILS_frxns_matS7inDB_AspGluN_retry.totalIntensity (mouse ADAMTS7 [2]; [4]): 2.26E+08

Substance: FBLN2_665 (FSQVASNTIPLPLPQPNTCK; listed as Homo sapiens)
- ATS7_SMC_rd2_TAILS_frxns_matS7inDB_AspGluN_retry.totalIntensity (mouse ADAMTS7 [2]; [4]): 7.99E+07

Substance: PLIN3_75 (VSGAQPILSKL; listed as Homo sapiens)
- ATS7_SMC_rd2_TAILS_frxns_matS7inDB_AspGluN_retry.totalIntensity (mouse ADAMTS7 [2]; [6]): 5.73E+07

Substance: LOXL1_218 (AVASAGVIYPYQPR; listed as Homo sapiens)
- ATS7_SMC_rd2_TAILS_frxns_matS7inDB_AspGluN_retry.totalIntensity (mouse ADAMTS7 [2]; [6]): 2.92E+08

Substance: HEG1_51 (GLELQLER; listed as Homo sapiens)
- ATS7_SMC_rd2_TAILS_frxns_matS7inDB_AspGluN_retry.totalIntensity (mouse ADAMTS7 [2]; [6]): 2.73E+08

Substance: EIF4B_426 (QTGTSTTSSR; listed as Homo sapiens)
- ATS7_SMC_rd2_TAILS_frxns_matS7inDB_AspGluN_retry.totalIntensity (mouse ADAMTS7 [2]; [4]): 9.39E+08

Substance: NBEA_1892 (LEKVAPLLR; listed as Homo sapiens)
- ATS7_SMC_rd2_TAILS_frxns_matS7inDB_AspGluN_retry.totalIntensity (mouse ADAMTS7 [2]; [6]): 1.60E+08

Substance: APOA1_86 (EQLGPVTQEFW; listed as Homo sapiens)
- ATS7_SMC_rd2_TAILS_frxns_matS7inDB_AspGluN_retry.totalIntensity (mouse ADAMTS7 [2]; [4]): 1.76E+09

Substance: PTPRF_1859 (MRYEGVVDMFQTVKTLR; listed as Homo sapiens)
- ATS7_SMC_rd2_TAILS_frxns_matS7inDB_AspGluN_retry.totalIntensity (mouse ADAMTS7 [2]; [6]): 1.20E+09

Substance: ECM1_38 (FQEVGYAAPPSPPLSR; listed as Homo sapiens)
- ATS7_SMC_rd2_TAILS_frxns_matS7inDB_AspGluN_retry.totalIntensity (mouse ADAMTS7 [2]; [4]): 1.82E+09

Substance: ADAM9_74 (GKEHIIHLER; listed as Homo sapiens)
- ATS7_SMC_rd2_TAILS_frxns_matS7inDB_AspGluN_retry.totalIntensity (mouse ADAMTS7 [2]; [4]): 3.07E+08

Substance: MMP1_100 (FVLTEGNPR; listed as Homo sapiens)
- ATS7_SMC_rd2_TAILS_frxns_matS7inDB_AspGluN_retry.totalIntensity (mouse ADAMTS7 [2]; [6]): 7.48E+07
